Source: PubChem BioAssay AID1439 (NMMLSC, 2008)
Out of some 220,000 compounds screened, about 770 (0.35%) were called active. This list was built around the results that the source calls inconclusive (neither active nor inactive); the mix of calls is not that of the screen. Cut-off read from the data, not from the text of the source: active = binding response below about 49% or above about 150%; inconclusive = no clear call, values can overlap the other calls; inactive = in between.

Sequences of proteins named here, by UniProt entry; tags and fusion partners are left off.
UniProt P09471, whole entry, looked up: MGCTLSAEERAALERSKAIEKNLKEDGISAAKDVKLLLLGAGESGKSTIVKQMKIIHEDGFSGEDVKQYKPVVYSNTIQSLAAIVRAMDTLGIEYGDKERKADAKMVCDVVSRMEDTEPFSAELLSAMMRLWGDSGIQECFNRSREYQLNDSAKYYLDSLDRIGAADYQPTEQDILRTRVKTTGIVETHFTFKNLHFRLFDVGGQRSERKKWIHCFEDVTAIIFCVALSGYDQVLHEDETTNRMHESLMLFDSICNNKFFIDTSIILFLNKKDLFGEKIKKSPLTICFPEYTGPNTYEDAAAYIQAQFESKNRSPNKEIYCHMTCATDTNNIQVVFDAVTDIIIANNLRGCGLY

Target: Guanine nucleotide-binding protein G(o) subunit alpha (Homo sapiens) (UniProt P09471)
Experiment: RGS7-Galphao binding modulators, primary screen, biochemical, multiplexed bead flow cytometry (AID 1439);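 note: fluorescent Galphao held in activated GDP-AlF4 state binding bead-coupled RGS7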
Settings: at 10 µM, actives lie on both sides

Row | SMILES | binding response (% of control)
1 | Cn1c(SCC(=O)NC(=O)CN2CCCC2=O)nnc1-c1ccc(F)cc1 | inconclusive: 108%
2 | CCOC(=O)c1cnc2ccccc2c1NCc1ccco1 | inconclusive: 144%
3 | Cn1c(-c2cccc(Br)c2)cnc1NCc1cccnc1 | inactive: 97.2%
4 | CCCCn1nnc(NC(=O)c2ccc([N+](=O)[O-])cc2Cl)n1 | inconclusive: 98.5%
5 | c1ccc(Nc2ccccn2)nc1 | inconclusive: 84.8%
6 | CC(C)CC(=O)N1CCC(O)(CS(=O)(=O)Cc2ccccc2)CC1 | inactive: 103%
7 | COc1ccccc1NC(=S)NCC1CCC(CNC(=S)Nc2ccccc2OC)CC1 (stereo unspecified) | inconclusive: 66%
8 | Cc1cc(C)n2c(SCc3nnc(-c4cccs4)o3)nnc2n1 | inconclusive: 115%
9 | CC1CCN(Cc2nc(-c3ccc(Cl)cc3)no2)CC1 | inconclusive: 63.1%
10 | CC(=O)NC(=O)c1cnn(-c2ccccc2)c1N | inconclusive: 130%
11 | COc1ccc(NC(=S)NCCCN2CCCC2)cc1 | inconclusive: 91.1%
12 | Cc1cccc(-c2n[nH]c(=S)n2/N=C/c2ccco2)c1 | inconclusive: 96.2%
13 | COc1ccccc1NC(=O)c1cc2c(s1)-c1ccccc1S(=O)(=O)C2 | inconclusive: 108%
14 | CC(C)c1onc(C(=O)NC2CCCCC2)c1[N+](=O)[O-] | inactive: 99.3%
15 | COc1ccc(-c2c(C#N)c(N)nc(Sc3ccc(Cl)cc3)c2C#N)cc1 | inconclusive: 87.3%
16 | COc1ccc(C)c2sc(=NC(=O)c3ccc(C(C)=O)cc3)n(C)c12 | inconclusive: 88.6%
17 | Cc1n[nH]c(=S)n1Cc1ccccc1 | inconclusive: 111%
18 | COc1cccc(C(=O)NN2CC(O)=C(c3nc(C)cs3)C2=N)c1 | inconclusive: 105%
19 | O=C1COc2ccc(C(=O)COC(=O)COc3ccccc3[N+](=O)[O-])cc2N1 | inconclusive: 82%
20 | O=C(Cc1c(F)cccc1Cl)N(Cc1ccccc1)c1ccccn1 | inconclusive: 95.1%
21 | Cc1cc2oc(=O)cc(Cn3ccnc3)c2cc1C | inactive: 96.5%
22 | CCC(c1nnc(SCC(=O)Nc2cccc(S(N)(=O)=O)c2)n1Cc1ccccc1)N(C)C (stereo unspecified) | inconclusive: 95.2%
23 | COc1ccc2cc3cc(C(=O)Nc4ccccc4N4CCN(C)CC4)oc3nc2c1 | inactive: 97.8%

Row | SMILES | binding response (% of control)
24 | CCCCC1=CC2=C(c3ccco3)C(=O)C(C)(OC(=O)c3ccc(OC)cc3)C(=O)C2=CN1c1ccccc1 (stereo unspecified) | inconclusive: 97.5%
25 | CC(=O)c1cn(CCC(C)C)c(=O)[nH]c1=O | inactive: 99.5%
26 | CCN(CC)S(=O)(=O)c1ccc2[nH]c(=O)cc(C(=O)Nc3cccc(C(C)=O)c3)c2c1 | inconclusive: 94%
27 | O=C(CN1CCN(Cc2ccc3c(c2)OCO3)CC1)Nc1cc(S(=O)(=O)N2CCCC2)ccc1Cl | inconclusive: 87.4%
28 | CCCC1C2C(=O)N(c3cccc(C)c3)C(=O)C2ON1c1ccccc1 (stereo unspecified) | inconclusive: 136%
29 | NCCCC[C@H]1CNC(=O)C(=O)N1CC1CCCCC1 | inconclusive: 74.7%
30 | O=c1cc(-c2ccccc2Cl)oc2c(NS(=O)(=O)c3ccccc3C(F)(F)F)ccc(O)c12 | inconclusive: 126%
31 | COc1cc(NC(=O)Cn2ccsc2=N)cc(OC)c1 | inconclusive: 258%
32 | O=C(O)C(Cc1c[nH]c2ccccc12)N1C(=O)C2C3c4ccccc4C(c4ccccc43)[C@@H]2C1=O (stereo partly specified) | inconclusive: 99.7%
33 | O=C(/C=C/c1ccco1)OCC1CCCN2CCCCC12 (stereo unspecified) | inactive: 95.3%
34 | COc1ccccc1N1C(=O)CC(Sc2ccccc2N)C1=O (stereo unspecified) | inconclusive: 64.3%
35 | NC(=O)NC(=O)COC(=O)CCCCCNS(=O)(=O)c1ccc2c(c1)OCCO2 | inconclusive: 84.5%
36 | COc1ccc(S(=O)(=O)NC(CC(=O)NCC2CCCO2)c2ccco2)cc1 (stereo unspecified) | inactive: 98.5%
37 | N#Cc1ccc(C(=O)CSc2n[nH]c(=O)n2-c2cccnc2)cc1 | inconclusive: 91.4%
38 | Cc1cc(O)ccc1N1C(=O)c2cccc3cc([N+](=O)[O-])cc(c23)C1=O | inactive: 101%
39 | COc1ccc(OC)c(/C=C2\SC(=S)N(C(C(=O)O)c3ccccc3)C2=O)c1 (stereo unspecified) | inconclusive: 83.9%
40 | Cc1cc(NC(=O)CSc2nnc(Nc3ccccc3C)s2)no1 | inconclusive: 222%
41 | COc1cc(OC)c(OC)cc1/C=N/NC(=O)c1ccc2nc[nH]c2c1 | inconclusive: 126%
42 | CCN1CCN(C(c2cccs2)C(C)NC(=S)NC2CCCCC2)CC1 (stereo unspecified) | inconclusive: 92.3%
43 | CC(=O)Nc1ccc(N/C=C2/CCCC2=O)cc1 | inconclusive: 96.3%
44 | O=C(Nc1nnc(COc2ccc(F)cc2)s1)Nc1ccccc1F | inconclusive: 115%
45 | C=Cn1nc(C)c2ccccc2c1=O | active: 14%
46 | Cc1ccc(-c2nn3cnnc3c3ccccc23)cc1 | inactive: 98.6%

Row | SMILES | binding response (% of control)
47 | CC(C)CCNc1nc(N)c([N+](=O)[O-])c(NCCO)n1 | inconclusive: 72.5%
48 | COc1ccccc1N1CCN(C(=O)Cc2c(C(=O)O)[nH]c3ccc(Cl)cc23)CC1 | inconclusive: 93.9%
49 | Cn1c(NNC(=O)/C=C/c2ccc3c(c2)OCO3)cc(=O)n(C)c1=O | inconclusive: 21.8%
50 | NC(=O)C1CCN(CCS(=O)(=O)c2ccc(Cl)cc2)CC1 | inconclusive: 153%
51 | N#Cc1c(NC(=O)c2ccc(Br)o2)n(-c2ccccc2)c2nc3ccccc3nc12 | inconclusive: 162%
52 | CC(Oc1ccccc1)C(=O)OCC(=O)NC(=O)NCc1ccco1 (stereo unspecified) | inactive: 102%
53 | O=C1CC(c2ccc(F)cc2)CC2=C1C(c1ccc([N+](=O)[O-])o1)Nc1ccccc1N2 (stereo unspecified) | inconclusive: -48.8%
54 | Cc1ccc(NNC(=O)c2ccno2)cc1Cl | inconclusive: 159%
55 | Cc1cccc(CC2S/C(=N/c3ccccn3)NC2=O)c1 (stereo unspecified) | inactive: 114%
56 | Cn1ncc2c(Nc3cccc(Cl)c3)nc(Nc3cccc(Cl)c3)nc21 | inconclusive: 98.3%
57 | COc1ccc(/C=N/Nc2cc(C)nc(N3CCOCC3)n2)cc1 | inconclusive: 102%
58 | CCOc1ccc(NS(=O)(=O)c2cc(NC(=O)CCC(=O)c3cccs3)ccc2Cl)cc1 | inconclusive: 83.8%
59 | CCN1C(c2ccc(F)cc2)=CS/C1=C(\C#N)c1nnc2n1-c1ccccc1SC2 | inactive: 101%
60 | O=C(NCc1ccco1)c1ccc(COc2ccc(Cl)cc2)cc1 | inactive: 85.1%
61 | COCCCNC(=O)C1CCC(CNS(=O)(=O)c2ccc(C)cc2)CC1 (stereo unspecified) | inconclusive: 59.1%
62 | COc1ccc(CNn2c(-c3cccs3)nc3ccccc3c2=O)cc1OC | inactive: 102%
63 | CC(=O)Nc1ccc2nc3c(=O)n(C)c(=O)n(C)c3nc2c1 | inconclusive: -865%
64 | O=C(NCc1ccccc1Cl)C1CCCN(c2nc3ccsc3c(=O)s2)C1 (stereo unspecified) | inconclusive: 94.1%
65 | NC(=O)CC(NC(=O)c1ccccc1)c1ccc(NCc2ccccc2)c([N+](=O)[O-])c1 (stereo unspecified) | inconclusive: 113%
66 | COC(=O)C1C(O)CCC2CN3CCc4c([nH]c5ccccc45)C3CC21 (stereo unspecified) | inconclusive: 93.5%
67 | C=CCSC1=NC(N)=C(C#N)C2(CCCCC2)C1C(N)=O (stereo unspecified) | inactive: 85.8%
68 | COc1cc(CNc2ncn[nH]2)ccc1OCc1cccc(C)c1 | inactive: 96.2%
69 | Nn1c(Cc2ccccc2F)n[nH]c1=S | inconclusive: 110%

6 records picked at random from the list so far:
Row | SMILES | binding response (% of control)
61 | COCCCNC(=O)C1CCC(CNS(=O)(=O)c2ccc(C)cc2)CC1 (stereo unspecified) | inconclusive: 59.1%
51 | N#Cc1c(NC(=O)c2ccc(Br)o2)n(-c2ccccc2)c2nc3ccccc3nc12 | inconclusive: 162%
47 | CC(C)CCNc1nc(N)c([N+](=O)[O-])c(NCCO)n1 | inconclusive: 72.5%
67 | C=CCSC1=NC(N)=C(C#N)C2(CCCCC2)C1C(N)=O (stereo unspecified) | inactive: 85.8%
58 | CCOc1ccc(NS(=O)(=O)c2cc(NC(=O)CCC(=O)c3cccs3)ccc2Cl)cc1 | inconclusive: 83.8%
56 | Cn1ncc2c(Nc3cccc(Cl)c3)nc(Nc3cccc(Cl)c3)nc21 | inconclusive: 98.3%

Further results follow.

Row | SMILES | binding response (% of control)
70 | COc1cc(OC)cc(C(=O)NCC(=O)OCc2nc3ccccc3s2)c1 | inconclusive: 91.7%
71 | O=C(Nc1ccccc1)C1=C[C@@H](c2coc3ccccc3c2=O)C[C@@H](OCCCCO)O1 | inactive: 91.3%
72 | COc1ccc(NC2=Nc3cccc4cccc2c34)cc1 | inactive: 98.4%
73 | Cc1cc(N2CCN(C)CC2)nc2ccc(NC(=S)NCCN3CCc4ccccc4C3)cc12 | inconclusive: 101%
74 | CCN(Cc1ccncc1)Cc1nc(Cc2ccccc2Cl)no1 | inactive: 94.3%
75 | CC1(C)NC(=O)N(Cc2cc(=O)n3ccsc3n2)C1=O | inconclusive: 214%
76 | CCOC(=O)C(=O)Nc1ncc(Cl)s1 | inconclusive: 94.7%
77 | COc1cccc(-c2csc3nc[nH]c(=O)c23)c1 | inactive: 96%
78 | COc1ccc(NC(=O)Cc2c(F)c(F)c(F)c(F)c2F)cc1OC | inconclusive: 100%
79 | COc1ccc(OC)c2c1sc(=NC(=O)C1COc3ccccc3O1)n2C (stereo unspecified) | inconclusive: 61%
80 | COC(=O)c1sccc1NC(=O)CC1C(=O)NCCN1C(=O)Nc1ccc(C(F)(F)F)cc1 (stereo unspecified) | inconclusive: 130%
81 | CCN(CC)c1ccc(N)cc1S(=O)(=O)Nc1ccccc1OC | inconclusive: 290%
82 | O=c1/c(=C\c2cccc(O)c2)sc2nc(-c3ccccc3)c(-c3ccccc3)n12 | inconclusive: 103%
83 | COc1ccc(-c2cc(-c3n[nH]c(=S)n3-c3ccccc3Cl)[nH]n2)cc1 | inactive: 96.6%
84 | COc1ccc(-c2c(-c3ccc(OCC(=O)NN)cc3O)n[nH]c2C)cc1 | inconclusive: -59.3%
85 | CC(=O)C1=C(O)C(=O)N(Cc2ccccc2)C1c1cccs1 (stereo unspecified) | active: 202% [activator]
86 | O=C(CN1C(=O)C2C3CCC(C3)C2C1=O)N1CCN(Cc2ccccc2)CC1 (stereo unspecified) | inactive: 103%
87 | CC(C)CNC(=O)CCCSc1nc2ccccc2[nH]1 | inconclusive: 112%
88 | CCc1ccc(C(=O)Cn2cnc3cc([N+](=O)[O-])ccc3c2=O)cc1 | inconclusive: 82.8%
89 | O=C(CN(c1ccc(F)cc1)S(=O)(=O)c1ccccc1)Nc1ccccc1C(=O)O | inconclusive: 89.2%
90 | O=C(c1ccccc1)c1cnc(-c2ccccc2)s1 | inconclusive: 96.4%
91 | CC[n+]1c(/C=C2\C=C(C)CC(C)(C)C2)sc2ccccc21 | inactive: 105%
